The source of these data is publication PMC3553376.

For the experiment, the target named is YopN-GSK (Y. pestis) (UniProt P68640). The experiment in a line: cross-linking + co-IP.

Results are given in words; binding and its absence hold for the method and conditions named. In cells and extracts the contact can be indirect. Some binding calls cover weakened binding; strength is not graded here.

“SycN/YscB chaperone (from UniProt P61380;Q56973) (complex)”: the binding result was “binds”.
